Laboratory results as given in publication PMC10325919.
Results are given in words; binding and its absence hold for the method and conditions named. For some of these results: Binding seen in cells or lysates may run through a third protein. Some entries that bind do so weakly or less than the wild type. For some of these results: Where a sequence is shown, tags or fusion partners need not be part of it.

Chains of the proteins cited; added tags and fusions are not shown. Residues count along the entry.
UniProt Q07021, residues 74-282: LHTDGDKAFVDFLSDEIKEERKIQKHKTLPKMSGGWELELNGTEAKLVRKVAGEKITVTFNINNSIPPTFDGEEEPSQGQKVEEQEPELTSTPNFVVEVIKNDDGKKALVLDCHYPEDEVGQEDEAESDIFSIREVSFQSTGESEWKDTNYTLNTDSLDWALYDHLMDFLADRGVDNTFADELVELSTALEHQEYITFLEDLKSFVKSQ

Key:
[1] = biological target: FLAG-tagged MIER1 ELM2-SANT (aa:171–350) (UniProt Q8N108); assay: SEC-MALS; gel filtrated pure MIER1(aa:171–350):HDAC1 complex (co-expressed) reapplied to a Superdex S200 column with refractive index and MALS detectors; both purified
[2] = biological target: T1, FLAG-tagged MIER1(aa:171–512) (UniProt Q8N108); assay: co-IP; FLAG-tagged bait transfected in HEK293F; purification on anti-FLAG resin, SDS-PAGE (Coomassie) or western blot with anti-C1QBP; a gel filtration step is not told for these panels (Figures 2B-D, 4C, 5C)
T1 sequence: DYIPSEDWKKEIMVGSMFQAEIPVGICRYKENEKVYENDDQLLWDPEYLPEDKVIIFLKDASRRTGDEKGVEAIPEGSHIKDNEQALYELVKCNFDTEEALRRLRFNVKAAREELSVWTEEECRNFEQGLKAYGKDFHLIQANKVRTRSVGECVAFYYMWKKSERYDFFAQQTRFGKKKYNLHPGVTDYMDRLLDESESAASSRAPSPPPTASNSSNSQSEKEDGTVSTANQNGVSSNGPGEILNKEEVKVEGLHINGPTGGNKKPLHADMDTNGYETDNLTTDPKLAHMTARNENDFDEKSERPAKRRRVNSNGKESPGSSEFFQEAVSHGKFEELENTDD

[3] = biological target: T1, FLAG-tagged MIER1(aa:171–512); assay: co-IP + SEC; FLAG-tagged bait transfected in HEK293F (with untagged partners where stated); lysate on anti-FLAG M2 resin, washed in 50 mM Tris/HCl pH 7.5, 50 mM potassium acetate, eluted by TEV protease, then Superdex S200 gel filtration; fractions on SDS-PAGE, bands identified by mass spectrometry
[4] = biological target: Full length FLAG tagged MIER1(aa:1–512) (UniProt Q8N108); assay: as above

binding [1] | binding [2] | binding [3] | binding [4] | Substance
no binding |  |  |  | FLAG-tagged MIER1 ELM2-SANT (aa:171–350) (from UniProt Q8N108 171-350) (domain or fragment)
 | binds | binds | binds | endogenous C1QBP (mature form) (from UniProt Q07021 74-282)
